Publication doi:10.1101/2022.02.01.475276

By UniProt entry, the sequences of proteins in these tests, tags left out. Where a name states a change or a piece, a line headed by the entry shows the natural chain unless it says otherwise. Residues count along the entry.
UniProt P81133, whole entry, stated change not applied: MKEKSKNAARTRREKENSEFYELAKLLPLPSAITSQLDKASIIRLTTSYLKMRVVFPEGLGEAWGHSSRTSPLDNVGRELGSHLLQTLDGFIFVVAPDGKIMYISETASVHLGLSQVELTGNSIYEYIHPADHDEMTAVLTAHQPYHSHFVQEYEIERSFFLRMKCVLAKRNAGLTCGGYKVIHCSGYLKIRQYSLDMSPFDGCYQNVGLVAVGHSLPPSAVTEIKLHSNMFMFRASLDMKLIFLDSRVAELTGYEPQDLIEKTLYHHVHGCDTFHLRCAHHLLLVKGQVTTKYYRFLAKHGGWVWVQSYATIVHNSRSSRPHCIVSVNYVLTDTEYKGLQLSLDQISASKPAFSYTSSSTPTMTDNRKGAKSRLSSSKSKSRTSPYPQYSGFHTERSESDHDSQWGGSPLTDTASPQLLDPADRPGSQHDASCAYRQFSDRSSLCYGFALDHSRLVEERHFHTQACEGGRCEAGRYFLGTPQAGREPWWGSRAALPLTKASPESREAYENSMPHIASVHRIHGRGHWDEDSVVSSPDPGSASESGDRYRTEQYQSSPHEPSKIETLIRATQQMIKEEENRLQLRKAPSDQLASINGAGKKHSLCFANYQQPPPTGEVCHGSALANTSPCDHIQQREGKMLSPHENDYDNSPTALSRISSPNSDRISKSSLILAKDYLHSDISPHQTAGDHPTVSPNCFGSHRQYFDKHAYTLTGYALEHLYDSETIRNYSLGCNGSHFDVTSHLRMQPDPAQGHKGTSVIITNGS
UniProt P81133, 1-348, stated change not applied: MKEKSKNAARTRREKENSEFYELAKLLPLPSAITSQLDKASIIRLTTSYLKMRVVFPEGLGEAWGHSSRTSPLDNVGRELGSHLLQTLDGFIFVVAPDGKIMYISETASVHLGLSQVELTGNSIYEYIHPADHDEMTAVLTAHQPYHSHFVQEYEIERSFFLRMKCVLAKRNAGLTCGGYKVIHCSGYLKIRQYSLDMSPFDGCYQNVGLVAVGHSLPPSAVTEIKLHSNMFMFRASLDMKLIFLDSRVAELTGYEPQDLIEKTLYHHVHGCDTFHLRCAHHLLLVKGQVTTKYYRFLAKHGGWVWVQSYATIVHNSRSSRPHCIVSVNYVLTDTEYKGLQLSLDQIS

Tests used:
Experiment in all cases: affinity purification with mass spectrometry
[1] = molecular target: hSIM1-2xHA-3xFlag (human) (UniProt P81133)
[2] = molecular target: hSIM1.R171H-2xHA-3xFlag (human) (UniProt P81133)
[3] = molecular target: hSim1(R171H).3xFlag2xStrep(1-348) (human) (UniProt P81133)
[4] = molecular target: hSim1.3xFlag2xStrep(1-348) (human) (UniProt P81133)

Measured: binding

HSP90A (endogenous, HEK293T) (from UniProt P07900 1-732)
binds: all assays above

No constants are given. Whether binding was seen depends on the method and setting. In cells and extracts the contact can be indirect. These calls come from enrichment with a bait or labelling near it, and not all partners need be listed.
